# Experimental data taken from the supplement of paper PMC11438910.
# Changes are numbered by the printed parent chain. The list shows a part of the results. The signal is at background level for most entries.
# B1: 4-99.1 (protein)
# chain 1: QVQLQESGPGLVKPSETLSLTCAVSGDSISSGYFWGWIRQPPGKGLEYIGYISGESGNTYDNPSLKSRVTISKDTSKNQFSLNLRSVTAADTAVYYCARRTVYIGFDYWGQGVLVTVSS
# chain 2: QAAPTQPPSVSGSPGQSVTISCTGTSSDIGYYNAVSWYQQHPGKAPKLMIYEVSKRPSGVSDRFSGSKSGTTASLTISGLQAEDEADYYCSSYAGTNTYIFGAGTRLTVL
# B2: 4-99.2 (protein)
# chain 1: QVQLQESGPGLVKPSETLSLTCAVSGYSIRSAYEWGWIRQPPGKGLEYIGYISGESGNTYYSPSLKSRVTISRDTSKNQFSLRLSSVTAADSAVYYCARRGQLIGFDFWGQGVLVTVSS
# chain 2: B1 chain 2 with Q40H, H41L, T71N, T96S
# Experiments:
# Experiment in all cases: fluorescence intensity of antibody binding to polysaccharide-coupled beads; higher = stronger binding
# [1] = target: pneumococcal polysaccharide Pn7A
# [2] = target: pneumococcal polysaccharide Pn7B
# [3] = target: pneumococcal polysaccharide Pn7C
# [4] = target: pneumococcal polysaccharide Pn7F
# [5] = target: pneumococcal polysaccharide Pn8
# [6] = target: pneumococcal polysaccharide Pn9A
# [7] = target: pneumococcal polysaccharide Pn9L
# [8] = target: pneumococcal polysaccharide Pn9N
# [9] = target: pneumococcal polysaccharide Pn9V
# [10] = target: pneumococcal polysaccharide C-Poly-1
# [11] = target: pneumococcal polysaccharide C-Poly-2
# [12] = target: pneumococcal polysaccharide Pn1
# [13] = target: pneumococcal polysaccharide Pn10A
# [14] = antibody concentration 2.8593 ng/mL
# [15] = antibody concentration 15.2894 ng/mL
# [16] = antibody concentration 81.7561 ng/mL
# [17] = antibody concentration 437.17 ng/mL
# [18] = antibody concentration 2337.65 ng/mL
# [19] = antibody concentration 12500 ng/mL
# [20] = antibody concentration 0.1 ng/mL
# [21] = antibody concentration 0.534724 ng/mL
binder,measurement,setting,value
B1,fluorescence intensity,[1]; [14],22 MFI
same,fluorescence intensity,[1]; [15],20 MFI
same,fluorescence intensity,[1]; [16],21.2 MFI
same,fluorescence intensity,[1]; [17],25 MFI
same,fluorescence intensity,[1]; [18],64.5 MFI
same,fluorescence intensity,[1]; [19],518 MFI
same,fluorescence intensity,[2]; [20],16.5 MFI
same,fluorescence intensity,[2]; [21],15.5 MFI
same,fluorescence intensity,[2]; [14],16.8 MFI
same,fluorescence intensity,[2]; [15],16.5 MFI
same,fluorescence intensity,[2]; [16],16 MFI
same,fluorescence intensity,[2]; [17],17.5 MFI
same,fluorescence intensity,[2]; [18],25.5 MFI
same,fluorescence intensity,[2]; [19],71 MFI
same,fluorescence intensity,[3]; [20],15.5 MFI
same,fluorescence intensity,[3]; [21],18 MFI
same,fluorescence intensity,[3]; [14],17.5 MFI
same,fluorescence intensity,[3]; [15],15.5 MFI
same,fluorescence intensity,[3]; [16],16 MFI
same,fluorescence intensity,[3]; [17],16.5 MFI
same,fluorescence intensity,[3]; [18],22 MFI
same,fluorescence intensity,[3]; [19],64.8 MFI
same,fluorescence intensity,[4]; [20],14.5 MFI
same,fluorescence intensity,[4]; [21],15.5 MFI
same,fluorescence intensity,[4]; [14],16 MFI
same,fluorescence intensity,[4]; [15],15 MFI
same,fluorescence intensity,[4]; [16],15 MFI
same,fluorescence intensity,[4]; [17],18.5 MFI
same,fluorescence intensity,[4]; [18],44.8 MFI
same,fluorescence intensity,[4]; [19],460 MFI
same,fluorescence intensity,[5]; [20],21 MFI
same,fluorescence intensity,[5]; [21],22.5 MFI
same,fluorescence intensity,[5]; [14],22 MFI
same,fluorescence intensity,[5]; [15],22.5 MFI
same,fluorescence intensity,[5]; [16],22 MFI
same,fluorescence intensity,[5]; [17],24.5 MFI
same,fluorescence intensity,[5]; [18],31 MFI
same,fluorescence intensity,[5]; [19],44.5 MFI
same,fluorescence intensity,[6]; [20],19 MFI
same,fluorescence intensity,[6]; [21],18.5 MFI
same,fluorescence intensity,[6]; [14],18.5 MFI
same,fluorescence intensity,[6]; [15],21 MFI
same,fluorescence intensity,[6]; [16],20 MFI
same,fluorescence intensity,[6]; [17],21 MFI
same,fluorescence intensity,[6]; [18],29 MFI
same,fluorescence intensity,[6]; [19],85 MFI
same,fluorescence intensity,[7]; [20],19 MFI
same,fluorescence intensity,[7]; [21],17.5 MFI
same,fluorescence intensity,[7]; [14],17 MFI
same,fluorescence intensity,[7]; [15],17.5 MFI
same,fluorescence intensity,[7]; [16],16.5 MFI
same,fluorescence intensity,[7]; [17],19 MFI
same,fluorescence intensity,[7]; [18],22 MFI
same,fluorescence intensity,[7]; [19],46.5 MFI
same,fluorescence intensity,[8]; [20],16 MFI
same,fluorescence intensity,[8]; [21],16 MFI
same,fluorescence intensity,[8]; [14],15.5 MFI
same,fluorescence intensity,[8]; [15],16.5 MFI
same,fluorescence intensity,[8]; [16],16.2 MFI
same,fluorescence intensity,[8]; [17],17.5 MFI
same,fluorescence intensity,[8]; [18],22.8 MFI
same,fluorescence intensity,[8]; [19],57.8 MFI
same,fluorescence intensity,[9]; [20],14.5 MFI
same,fluorescence intensity,[9]; [21],16 MFI
same,fluorescence intensity,[9]; [14],15 MFI
same,fluorescence intensity,[9]; [15],16.2 MFI
same,fluorescence intensity,[9]; [16],14.2 MFI
same,fluorescence intensity,[9]; [17],15.5 MFI
same,fluorescence intensity,[9]; [18],19.5 MFI
same,fluorescence intensity,[9]; [19],23.8 MFI
B2,fluorescence intensity,[10]; [20],25.5 MFI
same,fluorescence intensity,[10]; [21],23.8 MFI
same,fluorescence intensity,[10]; [14],24.2 MFI
same,fluorescence intensity,[10]; [15],25.2 MFI
same,fluorescence intensity,[10]; [16],23.8 MFI
same,fluorescence intensity,[10]; [17],26.8 MFI
same,fluorescence intensity,[10]; [18],30 MFI
same,fluorescence intensity,[10]; [19],73 MFI
same,fluorescence intensity,[11]; [20],21 MFI
same,fluorescence intensity,[11]; [21],20.5 MFI
same,fluorescence intensity,[11]; [14],20 MFI
same,fluorescence intensity,[11]; [15],21 MFI
same,fluorescence intensity,[11]; [16],21.5 MFI
same,fluorescence intensity,[11]; [17],22.5 MFI
same,fluorescence intensity,[11]; [18],26 MFI
same,fluorescence intensity,[11]; [19],62.5 MFI
same,fluorescence intensity,[12]; [20],12.8 MFI
same,fluorescence intensity,[12]; [21],13 MFI
same,fluorescence intensity,[12]; [14],12.5 MFI
same,fluorescence intensity,[12]; [15],13.5 MFI
same,fluorescence intensity,[12]; [16],14.5 MFI
same,fluorescence intensity,[12]; [17],13 MFI
same,fluorescence intensity,[12]; [18],17.5 MFI
same,fluorescence intensity,[12]; [19],29 MFI
same,fluorescence intensity,[13]; [20],25 MFI
same,fluorescence intensity,[13]; [21],26 MFI
same,fluorescence intensity,[13]; [14],26.8 MFI
same,fluorescence intensity,[13]; [15],25 MFI
same,fluorescence intensity,[13]; [16],25 MFI
same,fluorescence intensity,[13]; [17],26.5 MFI

# An excerpt of these results, with tabs:
binder	measurement	setting	value
B2	fluorescence intensity	[12]; [21]	13 MFI
same	fluorescence intensity	[12]; [14]	12.5 MFI

# Part of the list above, with bars between the fields:
binder | measurement | setting | value
B1 | fluorescence intensity | [8]; [15] | 16.5 MFI
same | fluorescence intensity | [8]; [16] | 16.2 MFI
same | fluorescence intensity | [8]; [17] | 17.5 MFI
